This is one part of the list.

The target of the assay is T1, OsSMF1 (Oryza sativa, UniProt Q6ZLB0 1-436).
T1 sequence: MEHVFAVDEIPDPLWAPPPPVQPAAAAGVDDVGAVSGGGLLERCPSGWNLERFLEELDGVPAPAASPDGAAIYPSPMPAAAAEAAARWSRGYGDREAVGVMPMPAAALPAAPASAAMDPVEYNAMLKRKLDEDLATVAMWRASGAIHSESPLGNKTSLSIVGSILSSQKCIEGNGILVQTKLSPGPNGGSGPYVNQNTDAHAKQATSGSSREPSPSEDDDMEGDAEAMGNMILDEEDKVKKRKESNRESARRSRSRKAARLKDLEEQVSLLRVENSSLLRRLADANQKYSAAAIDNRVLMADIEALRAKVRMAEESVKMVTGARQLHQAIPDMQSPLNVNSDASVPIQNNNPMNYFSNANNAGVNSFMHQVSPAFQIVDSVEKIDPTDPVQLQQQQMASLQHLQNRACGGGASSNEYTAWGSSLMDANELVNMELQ
As to the kind of experiment: protein-binding microarray (RPBM); PBS, 2% BSA, 51.3 ng/ul salmon testes DNA, 50 uM zinc acetate, 200 nM TF, 25 C, 1 h; high values mean tight binding. The following applies: protein: recombinant; tags: N-terminal polyhistidine and DsRed monomer fusion (pET32a); chain copies: 2; label: CyDye5-dUTP incorporated in the synthesized complementary strand; 3' TTTTT single-stranded linker to array surface; dsDNA, one strand shown. In outline: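 Using Ni–NTA, transcription factors fused N-terminally to polyhistidine and DsRed were purified after expression in E. coli BL21-CodonPlus. These were incubated at 200 nM with a blocked, double-stranded custom Agilent array for 1 h at 25 °C in a buffer containing 50 µM zinc acetate, and the array was washed. The binding signal is per-feature fluorescence intensity (arbitrary units) on an Axon 4000B scanner.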
“TCCGCTGTTGATTCATCAGCCGTGGAATGCCACGACGCAACGGAGTCACCTAGTGCAG”: the binding signal is 6330 fluorescence intensity (a.u.). With “TCTGCCACAGCTCCCATGTGCGCGCATCGCCATGGCCACGCGGAGTCACCTAGTGCAG”, the binding signal was 7410 fluorescence intensity (a.u.). In the case of “ACCACCACCACCACCATCGCACTCCCAACTCCCAAGCCGCCGGAGTCACCTAGTGCAG”, the binding signal was 3760 fluorescence intensity (a.u.). As for “TCATATATAGTATTATAATTAGCTTATCTTGTCGTGTGTTCGGAGTCACCTAGTGCAG”, the figure is 3890 fluorescence intensity (a.u.); as for “GTCAGTGTGGCCACGTCAGCATCCTCTCTTTTCCTCTCTTCGGAGTCACCTAGTGCAG”, 40800 fluorescence intensity (a.u.); as for “TTCCCTCTGGGCCCCACCCGTCAGCGACTCCACGGCACGCCGGAGTCACCTAGTGCAG”, 3510 fluorescence intensity (a.u.). On to “TCCCACTCCACCTTTGCCTCGTCGTCTCAATCGCCTTCGTCGGAGTCACCTAGTGCAG”, for which the binding signal was 4030 fluorescence intensity (a.u.). “ATACGAGCCAAAGACCGTTGACAAGCTAGTCAACAGTCATCGGAGTCACCTAGTGCAG”: the binding signal is 3270 fluorescence intensity (a.u.). The result for “TGTTTAGTGTGTAATACAACGTGGCAATCAAGCTCAAGATCGGAGTCACCTAGTGCAG” reads 3410 fluorescence intensity (a.u.); that for “TGTCACCATATTGCGCCACGTCATCAAAGTAATAAGGGCCCGGAGTCACCTAGTGCAG”, 13800 fluorescence intensity (a.u.); that for “TATTCTTATCGCAGCAAAATCTAGTCAATTGTTATGGCATCGGAGTCACCTAGTGCAG”, 3160 fluorescence intensity (a.u.).

In the case of “TGAATCCACAGCCACGCCACGCGGCCCATGCCTACGCCTCCGGAGTCACCTAGTGCAG”, the binding signal was 4000 fluorescence intensity (a.u.). As for “CCGCGCCACCTCATGCCGTGACGTGCAGATCCCCTCCTCCCGGAGTCACCTAGTGCAG”, the figure is 7890 fluorescence intensity (a.u.); as for “CACCACCACCACCGCTGCTGACTTCATCGCATCAGAACCACGGAGTCACCTAGTGCAG”, 3320 fluorescence intensity (a.u.); as for “CGGCCGCCGCCGGGGTGGCACAAGCTGAACTTCGACGGATCGGAGTCACCTAGTGCAG”, 3270 fluorescence intensity (a.u.). The result for “TTATTGTGTGAATTTGGCCCACGTCGGCGGCGGCGGCGGACGGAGTCACCTAGTGCAG” reads 6550 fluorescence intensity (a.u.); that for “GTAAATTACGTGTTCTTTTCACAGTTAAATTTGCTATTTTCGGAGTCACCTAGTGCAG”, 3640 fluorescence intensity (a.u.); that for “CTTCTAGAGGTTTCTAGAAGATACTGGAGTTGGAGAGGTGCGGAGTCACCTAGTGCAG”, 13000 fluorescence intensity (a.u.). With “CAAATCCACACTCAAGAATTAGCGTAGATTACTATGGAATCGGAGTCACCTAGTGCAG”, the binding signal was 5750 fluorescence intensity (a.u.). As for “GGGCTACAGGTTGAGCACGTGGGCTGGCACGGAACAACCCCGGAGTCACCTAGTGCAG”, the figure is 3570 fluorescence intensity (a.u.). The result for “TCGACCCGTGAGGTGGCTTTCGTTGTCAGCGTCGTCAACGCGGAGTCACCTAGTGCAG” reads 4030 fluorescence intensity (a.u.). On to “CTCATACGCTAACACGTAATGAAATACCATTGGGTTGTTTCGGAGTCACCTAGTGCAG”, for which the binding signal was 4690 fluorescence intensity (a.u.). The result for “ATTTACTGCCTATTCGTGAGTTGGTCCTCCTGACTCTGACCGGAGTCACCTAGTGCAG” reads 3750 fluorescence intensity (a.u.); that for “CTTCGCCGCCCTCGTTTGCCCGCCGCCACGCGTCGCTGTACGGAGTCACCTAGTGCAG”, 5240 fluorescence intensity (a.u.). As for “CGCCGAAGAGATTAATTCCACCAAAACCATATGTGTACGACGGAGTCACCTAGTGCAG”, the figure is 19200 fluorescence intensity (a.u.). Turning to “GTTACGACAACTTTAACACCGTCAACCTGAGCTAACAGATCGGAGTCACCTAGTGCAG”, the binding signal was 32900 fluorescence intensity (a.u.). On to “CCGCCACGTTGTTCCGTGTCACCCTAGAAAATAGCCGCACCGGAGTCACCTAGTGCAG”, for which the binding signal is 6140 fluorescence intensity (a.u.).

Turning to “TCGCTCGCCGCCGCGTCGCGTCGCGCCGCCACCTCACGCCCGGAGTCACCTAGTGCAG”, the binding signal is 4870 fluorescence intensity (a.u.).

“GGCAACGCCAGCTATAGACCATAGATGGCTCTTGACTAGGCGGAGTCACCTAGTGCAG”: the binding signal is 3600 fluorescence intensity (a.u.). On to “GTGCAACCCAGGCCATCCCACGCAATCGGACACAGCACCGCGGAGTCACCTAGTGCAG”, for which the binding signal is 5780 fluorescence intensity (a.u.). The result for “CTCAACGTCCACGATGACACGCCATGGTTCATCGTCGGCACGGAGTCACCTAGTGCAG” reads 5550 fluorescence intensity (a.u.); that for “GCATGGCGCCGCCATCTCGGATTCGCCGTAGTGTCTCCGCCGGAGTCACCTAGTGCAG”, 35300 fluorescence intensity (a.u.); that for “GCAATTACATTCATGACATGGATCTGGCCTAGTTTTGCTGCGGAGTCACCTAGTGCAG”, 5040 fluorescence intensity (a.u.).

“CCACGCCCGACGCTGTAGCTGACAGGTGGGTCCACACCATCGGAGTCACCTAGTGCAG”: the binding signal is 3780 fluorescence intensity (a.u.).

Consider “GGCCTTACAATATAAGAATATTCTTGTAGCATTAGGGTAGCGGAGTCACCTAGTGCAG”, for which the binding signal was 3740 fluorescence intensity (a.u.). The result for “TTCAAATGGAGAACTGACGAACTTGTAATATGACGTCAGTCGGAGTCACCTAGTGCAG” reads 6230 fluorescence intensity (a.u.); that for “CAATGCTTTTCACAATAACTTGTGTCATTTTCTGAAGTTTCGGAGTCACCTAGTGCAG”, 3500 fluorescence intensity (a.u.); that for “CAGACCACAGCCATCAACCGCGTCGAACGGATGGATGGTCCGGAGTCACCTAGTGCAG”, 3220 fluorescence intensity (a.u.). Turning to “GGAAACCCACCTCCGTCGACTTCTTCTTCAACTCCGGTTGCGGAGTCACCTAGTGCAG”, the binding signal was 3370 fluorescence intensity (a.u.). With “CCCAGTAGTGTTCCGGTTAGCTCTATATGATGGTGGGCTACGGAGTCACCTAGTGCAG”, the binding signal was 3980 fluorescence intensity (a.u.). The result for “CGGAATCGGCGTCCGAAATTGGACGTGGCCTGCCTGCAGTCGGAGTCACCTAGTGCAG” reads 4200 fluorescence intensity (a.u.). On to “CACGCTGCAGCAGCGTGGCCCACACGCCATGCTGGCACGCCGGAGTCACCTAGTGCAG”, for which the binding signal is 4360 fluorescence intensity (a.u.).

These data come from article PMC7819943, “Rice protein-binding microarrays: a tool to detect cis-acting elements near promoter regions in rice”.
